Results on 6 molecules are retold here after publication PMC12448072.

One test has as its target T1, PILS3-GFP (A. thaliana) (UniProt Q9C9K5).
T1 sequence: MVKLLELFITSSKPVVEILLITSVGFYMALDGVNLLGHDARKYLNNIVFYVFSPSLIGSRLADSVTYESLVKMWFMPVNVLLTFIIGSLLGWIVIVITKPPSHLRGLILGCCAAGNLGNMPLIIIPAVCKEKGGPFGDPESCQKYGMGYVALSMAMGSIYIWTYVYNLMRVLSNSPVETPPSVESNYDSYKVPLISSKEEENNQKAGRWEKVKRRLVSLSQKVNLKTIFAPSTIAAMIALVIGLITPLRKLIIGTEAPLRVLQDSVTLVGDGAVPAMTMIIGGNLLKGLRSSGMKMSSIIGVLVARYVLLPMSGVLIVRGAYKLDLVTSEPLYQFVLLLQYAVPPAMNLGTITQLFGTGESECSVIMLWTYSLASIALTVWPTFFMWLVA
Description: co-IP; PILS3-GFP coexpressed with mScarlet-tagged ERAD components transiently in N. benthamiana; α-RFP or α-GFP IPs, immunoblot with RFP or GFP antibodies.

Test [1] concerns the target T2, PILS3 (split-ubiquitin bait) (A. thaliana) (UniProt Q9C9K5).
T2 sequence: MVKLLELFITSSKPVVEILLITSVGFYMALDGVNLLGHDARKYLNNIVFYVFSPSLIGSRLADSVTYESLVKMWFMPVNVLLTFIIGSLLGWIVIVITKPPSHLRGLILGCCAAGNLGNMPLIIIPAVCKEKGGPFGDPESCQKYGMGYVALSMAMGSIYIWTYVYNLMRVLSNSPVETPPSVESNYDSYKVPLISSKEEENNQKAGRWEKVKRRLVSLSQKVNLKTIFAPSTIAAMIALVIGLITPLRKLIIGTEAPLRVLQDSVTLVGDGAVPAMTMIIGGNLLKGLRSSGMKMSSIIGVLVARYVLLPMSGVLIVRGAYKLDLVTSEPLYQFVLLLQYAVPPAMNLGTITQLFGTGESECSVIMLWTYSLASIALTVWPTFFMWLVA
As to the kind of experiment: two-hybrid; mating-based split-ubiquitin system for transmembrane proteins in yeast; PILS3 bait (pMetYC-DEST, THY.AP4), preys in PNX35-DEST (THY.AP5); growth on SD -Trp -Leu -Ade -His -Ura at 21°C.

The target of a further test is T3, PILS3-cYFP (A. thaliana) (UniProt Q9C9K5).
T3 sequence: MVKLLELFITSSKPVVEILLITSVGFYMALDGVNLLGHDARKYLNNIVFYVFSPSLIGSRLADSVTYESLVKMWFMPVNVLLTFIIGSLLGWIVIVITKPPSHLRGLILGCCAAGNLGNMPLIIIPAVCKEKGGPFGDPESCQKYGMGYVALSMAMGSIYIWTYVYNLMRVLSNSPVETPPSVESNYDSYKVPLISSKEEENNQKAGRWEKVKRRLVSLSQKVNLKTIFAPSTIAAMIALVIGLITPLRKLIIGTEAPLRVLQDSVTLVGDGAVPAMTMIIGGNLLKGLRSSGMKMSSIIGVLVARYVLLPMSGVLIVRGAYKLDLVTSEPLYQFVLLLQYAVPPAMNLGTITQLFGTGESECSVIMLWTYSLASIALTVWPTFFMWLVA
As to the kind of experiment: split reporter; ratiometric BiFC (rBiFC) in transiently transformed N. benthamiana leaves; PILS3-cYFP with nYFP fusions, mRFP from the same T-DNA as expression control.

These are yes or no findings as the source states them, for the method shown. For part of these data: In cells and extracts the contact can be indirect. Some binding calls cover weakened binding; strength is not graded here. For part of these data: Tags and fused reporters may be left off the sequences shown.

B1: DER2.1-mScarlet (protein, UniProt Q8VZ96 1-244)
chain: MAQAVEEWYKQMPIITRSYLTAAVVTTVGCSLEIISPYNLYLNPTLVVKQYQFWRLVTNFLYFRKMDLDFLFHMFFLARYCKLLEENSFRGKTADFLYMLLFGATVLTGIVLIGGMIPYLSVSFSKIIFLSNSLTFMMVYVWSKQNPYIHMSFLGLFTFTAAYLPWVLLGFSILVGASAWGDFLGMIAGHAYYFLAFVYPRMTDRRPLKTPSFLKALFADEPVVIARPEDVRFAHAPFDEIHQD
Regarding B1, the binding entry with PILS3-GFP (A. thaliana) is listed as “binds”.

B2: DER2.1 (split-ubiquitin prey) (protein, UniProt Q8VZ96 1-244)
chain: MAQAVEEWYKQMPIITRSYLTAAVVTTVGCSLEIISPYNLYLNPTLVVKQYQFWRLVTNFLYFRKMDLDFLFHMFFLARYCKLLEENSFRGKTADFLYMLLFGATVLTGIVLIGGMIPYLSVSFSKIIFLSNSLTFMMVYVWSKQNPYIHMSFLGLFTFTAAYLPWVLLGFSILVGASAWGDFLGMIAGHAYYFLAFVYPRMTDRRPLKTPSFLKALFADEPVVIARPEDVRFAHAPFDEIHQD
With B2, the binding result in test [1] is given as “binds”.

B3: DER2.1-nYFP (protein, UniProt Q8VZ96 1-244)
chain: MAQAVEEWYKQMPIITRSYLTAAVVTTVGCSLEIISPYNLYLNPTLVVKQYQFWRLVTNFLYFRKMDLDFLFHMFFLARYCKLLEENSFRGKTADFLYMLLFGATVLTGIVLIGGMIPYLSVSFSKIIFLSNSLTFMMVYVWSKQNPYIHMSFLGLFTFTAAYLPWVLLGFSILVGASAWGDFLGMIAGHAYYFLAFVYPRMTDRRPLKTPSFLKALFADEPVVIARPEDVRFAHAPFDEIHQD
B3: the binding entry in the test with PILS3-cYFP (A. thaliana) is listed as “binds”.

B4: HRD1A (split-ubiquitin prey) (protein, UniProt Q9LW77 1-492)
chain: MIRLRTYAGLSFMATLAVIYHAFSSRGQFYPATVYLSTSKISLVLLLNMCLVLMLSLWHLVKFVFLGSLREAEVERLNEQAWRELMEILFAITIFRQDFSSGFLPLVVTLLLIKALHWLAQKRVEYIETTPSVSKLSHFRIVSFMGFLLLVDSLFMYSSIRHLIQSRQASVSLFFSFEYMILATTTVAIFVKYVFYVTDMLMDGQWEKKPVYTFYLELIRDLLHLSMYICFFFVIFMNYGVPLHLLRELYETFRNFQIRVSDYLRYRKITSNMNDRFPDATPEELTASDATCIICREEMTNAKKLICGHLFHVHCLRSWLERQQTCPTCRALVVPPENATSAAPGQRELHQGSQQGTSSSGNQGSEISSSAGVSNNSLSRHHARLQAAASAASVYGKSMVYPSANTVAWSSGVPGTEQVSTEPDQTLPQHNLPVENSHAYANMSETKLEEMRKSLETHLEILRNRLHFLETRKPESAGEPENKGKSVADAAE
In the case of B4, in test [1], the binding entry is recorded as “binds”.

B5: DER2.2-mScarlet (protein, UniProt Q9ZS88 1-244)
chain: MAQAVEEWYKQMPIITRSYLTAAVITTVGCSLDIISPYNLYLNPTLVVKQYQYWRLVTNFLYFRKMDLDFMFHMFFLARYCKLLEENSFRGKTADFLYMLLFGASVLTGIVLIGGMIPYLSASFAKIIFLSNSLTFMMVYVWSKQNPYIHMSFLGLFTFTAAYLPWVLLGFSILVGASAWVDLLGMIAGHAYYFLAEVYPRMTNRRPLKTPSFLKALFADEPVVVARPEDVRFAAAPFDEIHQD
Turning to B5, the binding result with PILS3-GFP (A. thaliana) is on record as “binds”.

B6: DER2.2-nYFP (protein, UniProt Q9ZS88 1-244)
chain: MAQAVEEWYKQMPIITRSYLTAAVITTVGCSLDIISPYNLYLNPTLVVKQYQYWRLVTNFLYFRKMDLDFMFHMFFLARYCKLLEENSFRGKTADFLYMLLFGASVLTGIVLIGGMIPYLSASFAKIIFLSNSLTFMMVYVWSKQNPYIHMSFLGLFTFTAAYLPWVLLGFSILVGASAWVDLLGMIAGHAYYFLAEVYPRMTNRRPLKTPSFLKALFADEPVVVARPEDVRFAAAPFDEIHQD
For B6, in the test with PILS3-cYFP (A. thaliana), the binding result was “binds”.
